Measurements as given in article PMC6549159.

Chains of the proteins cited; added tags and fusions are not shown.
UniProt O08808: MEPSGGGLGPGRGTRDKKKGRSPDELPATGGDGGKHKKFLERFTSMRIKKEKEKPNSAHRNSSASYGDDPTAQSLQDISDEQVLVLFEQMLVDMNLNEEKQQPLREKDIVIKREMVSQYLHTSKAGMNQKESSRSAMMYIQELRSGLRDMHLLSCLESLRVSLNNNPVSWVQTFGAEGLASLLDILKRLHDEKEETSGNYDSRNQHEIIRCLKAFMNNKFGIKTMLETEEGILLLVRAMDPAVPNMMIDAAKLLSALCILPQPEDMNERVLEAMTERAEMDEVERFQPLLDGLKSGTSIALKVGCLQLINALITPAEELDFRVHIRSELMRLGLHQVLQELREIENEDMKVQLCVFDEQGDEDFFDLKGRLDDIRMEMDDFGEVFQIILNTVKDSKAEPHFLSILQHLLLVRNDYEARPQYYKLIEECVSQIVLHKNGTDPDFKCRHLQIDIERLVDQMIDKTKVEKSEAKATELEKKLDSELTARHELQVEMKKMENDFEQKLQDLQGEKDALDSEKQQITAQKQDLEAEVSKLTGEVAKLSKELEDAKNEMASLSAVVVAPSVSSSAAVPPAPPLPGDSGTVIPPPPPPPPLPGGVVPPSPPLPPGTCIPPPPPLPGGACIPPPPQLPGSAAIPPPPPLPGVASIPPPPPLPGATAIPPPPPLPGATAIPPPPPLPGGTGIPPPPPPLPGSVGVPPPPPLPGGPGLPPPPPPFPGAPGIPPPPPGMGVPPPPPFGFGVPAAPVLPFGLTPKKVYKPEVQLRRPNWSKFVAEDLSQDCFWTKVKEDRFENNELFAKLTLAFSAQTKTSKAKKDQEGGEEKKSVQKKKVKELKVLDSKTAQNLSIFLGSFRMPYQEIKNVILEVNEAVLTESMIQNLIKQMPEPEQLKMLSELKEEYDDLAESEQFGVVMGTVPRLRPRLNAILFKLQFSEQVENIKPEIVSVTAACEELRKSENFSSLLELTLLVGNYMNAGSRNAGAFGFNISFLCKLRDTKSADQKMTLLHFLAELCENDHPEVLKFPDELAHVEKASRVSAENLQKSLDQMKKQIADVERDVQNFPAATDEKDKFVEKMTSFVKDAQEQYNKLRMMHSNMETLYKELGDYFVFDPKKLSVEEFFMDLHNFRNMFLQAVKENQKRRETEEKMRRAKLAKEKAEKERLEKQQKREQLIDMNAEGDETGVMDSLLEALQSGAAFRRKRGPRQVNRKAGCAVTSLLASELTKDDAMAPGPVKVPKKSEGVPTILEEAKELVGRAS
UniProt O35129: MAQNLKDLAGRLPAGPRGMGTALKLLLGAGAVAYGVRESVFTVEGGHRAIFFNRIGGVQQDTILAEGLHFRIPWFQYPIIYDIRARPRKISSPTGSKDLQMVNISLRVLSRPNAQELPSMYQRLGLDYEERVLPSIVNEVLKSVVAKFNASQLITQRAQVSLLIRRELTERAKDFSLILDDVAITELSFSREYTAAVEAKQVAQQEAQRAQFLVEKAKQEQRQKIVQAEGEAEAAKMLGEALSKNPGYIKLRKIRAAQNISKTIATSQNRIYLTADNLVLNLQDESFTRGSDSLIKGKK
UniProt P18760: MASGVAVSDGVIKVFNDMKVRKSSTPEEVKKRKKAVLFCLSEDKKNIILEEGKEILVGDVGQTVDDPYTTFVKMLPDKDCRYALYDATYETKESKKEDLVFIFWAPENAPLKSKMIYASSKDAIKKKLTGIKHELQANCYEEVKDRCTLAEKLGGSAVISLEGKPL

Target: mammalian Diaphanous1 (mDia1), endogenous (mouse (endogenous in C2C12)) (UniProt O08808)
Test: affinity purification with mass spectrometry; IP of endogenous mDia1 from C2C12 myoblasts (GM) and myotubes (DM 72 h), LC-MS/MS; LFQ ratio against IgG of 2 or greater in three biological replicates

Row | binding | Substance
1 | binds | Prohibitin2 (Phb2), endogenous (from UniProt O35129 1-299)
2 | binds | cofilin1, endogenous (from UniProt P18760 1-166)

No constants are given. Whether binding was seen depends on the method and setting. Binding seen in cells or lysates may run through a third protein. A yes stands for co-enrichment or nearness to the bait. Other partners may have been found.
